Each structure is given as a SMILES string. Some of the results follow. This data set is noisy: repeats of one test often differ as much as different tests do.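 Human kidney-derived cells stably carry a construct in which eight TEAD-binding elements drive luciferase, measured by luminescence in a drug-repurposing library screen. A hit is any compound whose signal exceeds the plate mean by more than five robust Z scores.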

The text below walks through data of the supplement of paper PMC10735217.

The test system of this experiment is HEK293A TEAD-LUC reporter. Kind of experiment: TEAD-luciferase reporter activity (YAP activation), robust Z score vs plate; higher = stronger YAP/TEAD activation. As to conditions: 24 h.

With `O=C(NNCS(=O)(=O)O)c1ccncc1`, the TEAD-luciferase reporter activity by setting is: (compound concentration: 200 nM) inactive: -1.56; (compound concentration: 2 uM) inactive: -1.41; (compound concentration: 10 uM) inactive: 1.34.

On to `FC(F)(F)COCC(F)(F)F`, for which the TEAD-luciferase reporter activity runs as follows: (compound concentration: 200 nM) inactive: -0.852; (compound concentration: 2 uM) inactive: -1.25; (compound concentration: 10 uM) inactive: 0.271.

In the case of `COc1ccccc1C(=O)N1CC(N(C)c2ccccc2C)C1`, the TEAD-luciferase reporter activity was inactive: 4.21 (compound concentration: 200 nM) and inactive: -0.349 (compound concentration: 10 uM).

`O=C(c1ccccc1)N1CCC(C(=O)N2CCC(N3CCCC3=O)CC2)CC1`: the TEAD-luciferase reporter activity is inactive: -1.11 (compound concentration: 200 nM) and inactive: 1.88 (compound concentration: 10 uM).

With `CC(C)C[C@H](NC(=O)[C@@H](COC(C)(C)C)NC(=O)[C@H](Cc1ccc(O)cc1)NC(=O)[C@H](CO)NC(=O)[C@H](Cc1c[nH]c2ccccc12)NC(=O)[C@H](Cc1c[nH]cn1)NC(=O)[C@@H]1CCC(=O)N1)C(=O)N[C@@H](CCCNC(=N)N)C(=O)N1CCC[C@H]1C(=O)NNC(N)=O` [goserelin], under “compound concentration: 2 uM”, the TEAD-luciferase reporter activity is inactive: -0.602.

Turning to `CC(C)C[C@H](NC(=O)[C@@H](COC(C)(C)C)NC(=O)[C@H](Cc1ccc(O)cc1)NC(=O)[C@H](CO)NC(=O)[C@H](Cc1c[nH]c2ccccc12)NC(=O)[C@H](Cc1c[nH]cn1)NC(=O)[C@@H]1CCC(=O)N1)C(=O)N[C@@H](CCCNC(=N)N)C(=O)N1CCC[C@H]1C(=O)NNC(N)=O` [Goserelin], the TEAD-luciferase reporter activity reads like this: (compound concentration: 200 nM) inactive: -1.49; (compound concentration: 10 uM) inactive: -0.0402.

Regarding `CN/C(=N/CCSCc1nc[nH]c1C)NC#N` [Cimetidine], the TEAD-luciferase reporter activity (compound concentration: 200 nM) is inactive: -2.75 and the TEAD-luciferase reporter activity (compound concentration: 10 uM) was inactive: 2.9.

As to `CN/C(=N/CCSCc1nc[nH]c1C)NC#N` [cimetidine, Metatron], the TEAD-luciferase reporter activity (compound concentration: 2 uM) was inactive: -0.818.

Turning to `Cc1c(-c2ccccc2F)[nH]c(N)c1C#N`, the TEAD-luciferase reporter activity is inactive: 1.57 (compound concentration: 200 nM), inactive: 0.68 (compound concentration: 2 uM) and active: 5.13 (compound concentration: 10 uM).

`CNC(=O)[C@@H](NC(=O)[C@H](CC(C)C)[C@H](O)C(=O)NO)C(C)(C)C` [Marimastat]: the TEAD-luciferase reporter activity is inactive: 3.46 (compound concentration: 200 nM), inactive: 0.25 (compound concentration: 2 uM) and inactive: 0.297 (compound concentration: 10 uM).

On to `CCCCC(C)(O)C/C=C/[C@H]1[C@H](O)CC(=O)[C@@H]1CCCCCCC(=O)OC` (some centres undefined) [Misoprostol], for which the TEAD-luciferase reporter activity (compound concentration: 10 uM) is inactive: 0.93.

As to `NC(=O)c1ccc(N(C(N)=O)c2c(F)cccc2F)nc1-c1ccc(F)cc1F`, the TEAD-luciferase reporter activity reads like this: (compound concentration: 200 nM) inactive: -1.42; (compound concentration: 2 uM) inactive: -1.71; (compound concentration: 10 uM) inactive: -1.81.

With `CCNCCCNC/C=C\CNCCCNCC`, the TEAD-luciferase reporter activity (compound concentration: 200 nM) was inactive: -1.13, the TEAD-luciferase reporter activity (compound concentration: 2 uM) is inactive: -1.66 and the TEAD-luciferase reporter activity (compound concentration: 10 uM) was inactive: -1.1.

As for `COc1cccc(C(=O)NC2CCN(C(=O)c3ccc(-c4cccc(OC)c4)cc3)CC2)c1`, the TEAD-luciferase reporter activity was inactive: 2.35 (compound concentration: 200 nM) and inactive: 0.567 (compound concentration: 10 uM).

`CCCN(CCC)C(=O)C1=Cc2ccc(-c3ccc(C(=O)N4CCCC4)cc3)cc2N=C(N)C1` [Motolimod]: the TEAD-luciferase reporter activity by setting is: (compound concentration: 200 nM) inactive: -0.468; (compound concentration: 10 uM) inactive: 0.99.

On to `CO[C@H]1C(=O)[C@]2(C)[C@@H](OC)C[C@H]3OCC3(OC(C)=O)[C@H]2[C@H](OC(=O)c2ccccc2)[C@]2(O)C[C@H](OC(=O)[C@H](O)[C@@H](NC(=O)OC(C)(C)C)c3ccccc3)C(C)=C1C2(C)C` (some centres undefined) [cabazitaxel], for which the TEAD-luciferase reporter activity by setting is: (compound concentration: 200 nM) inactive: 0.187; (compound concentration: 2 uM) inactive: -2.13; (compound concentration: 10 uM) inactive: 4.57.

Regarding `N=C(N)c1cccc(CCCCC(=O)N[C@@H](CC(=O)O)C(=O)N[C@@H](Cc2ccccc2)C(=O)O)c1`, the TEAD-luciferase reporter activity was inactive: 2.96 (compound concentration: 200 nM), inactive: -0.113 (compound concentration: 2 uM) and inactive: 0.506 (compound concentration: 10 uM).

As for `CCCCCCCN(Cc1ccc(CC(C)(C)C)cc1)C(=O)Nc1ccc(F)cc1F`, the TEAD-luciferase reporter activity (compound concentration: 200 nM) is inactive: -1.16, the TEAD-luciferase reporter activity (compound concentration: 2 uM) was inactive: -1.27 and the TEAD-luciferase reporter activity (compound concentration: 10 uM) is inactive: 2.27.

`OCCN1CCN(c2cc(-c3ccccc3)c(C(F)(F)F)nn2)CC1`: the TEAD-luciferase reporter activity runs as follows: (compound concentration: 200 nM) inactive: -1.29; (compound concentration: 2 uM) inactive: -1.87; (compound concentration: 10 uM) inactive: -0.0583.

`O=C1OC(CN2CCOCC2)CN1/N=C/c1ccc([N+](=O)[O-])o1` (centres undefined): the TEAD-luciferase reporter activity by setting is: (compound concentration: 200 nM) inactive: -0.192; (compound concentration: 2 uM) inactive: 1.75; (compound concentration: 10 uM) inactive: 1.56.

`C[C@@H](NC(=O)Cc1c(Cl)ccc(NCC(F)(F)c2cccc[n+]2[O-])[n+]1[O-])c1cccc(Cl)c1`: the TEAD-luciferase reporter activity runs as follows: (compound concentration: 200 nM) inactive: 0.791; (compound concentration: 2 uM) inactive: 0.768; (compound concentration: 10 uM) inactive: 2.83.

Take `NS(=O)(=O)c1ccc(N2N=C(C(F)(F)F)CC2c2c[nH]c3cc(Cl)ccc23)cc1` (centres undefined) [onconoxib]: the TEAD-luciferase reporter activity runs as follows: (compound concentration: 200 nM) inactive: -0.443; (compound concentration: 2 uM) inactive: 0.385; (compound concentration: 10 uM) inactive: 2.05.

As to `CNC1CN(c2c(F)cc3c(=O)c(C(=O)O)cn(-c4nc(N)c(F)cc4F)c3c2Br)C1`, the TEAD-luciferase reporter activity (compound concentration: 200 nM) was inactive: 1.31, the TEAD-luciferase reporter activity (compound concentration: 2 uM) was inactive: 0.629 and the TEAD-luciferase reporter activity (compound concentration: 10 uM) is inactive: 2.8.

For `N=C(N)c1ccc(CNC(=O)[C@H](Cc2cccc(CN)c2)NC(=O)[C@@H](CCCc2ccccc2)NS(=O)(=O)Cc2cccc(C(=O)O)c2)cc1`, the TEAD-luciferase reporter activity is, setting by setting: (compound concentration: 200 nM) inactive: -0.944; (compound concentration: 2 uM) inactive: -1.34; (compound concentration: 10 uM) inactive: -0.783.

As for `Cc1cc(NS(=O)(=O)c2ccccc2)n(-c2ccccc2)n1`, the TEAD-luciferase reporter activity (compound concentration: 200 nM) is inactive: -0.86, the TEAD-luciferase reporter activity (compound concentration: 2 uM) is inactive: -0.437 and the TEAD-luciferase reporter activity (compound concentration: 10 uM) is inactive: 1.94.

With `CCC(C(=O)O)c1ccc(CC(C)C)cc1` (centres undefined) [butibufen], the TEAD-luciferase reporter activity reads like this: (compound concentration: 200 nM) inactive: 0.838; (compound concentration: 2 uM) inactive: -1.73; (compound concentration: 10 uM) inactive: 0.324.

Turning to `CCOC1c2ccccc2C(=O)N(C)c2ccccc21` (centres undefined) [etazepine], the TEAD-luciferase reporter activity is inactive: 1.26 (compound concentration: 200 nM), inactive: 0.672 (compound concentration: 2 uM) and inactive: -0.204 (compound concentration: 10 uM).
